For assay [1], the target named is T1, Flag-UCHL3 (ubiquitin C-terminal hydrolase L3) (human (cDNA from 293 T cells)) (UniProt P15374).
T1 sequence: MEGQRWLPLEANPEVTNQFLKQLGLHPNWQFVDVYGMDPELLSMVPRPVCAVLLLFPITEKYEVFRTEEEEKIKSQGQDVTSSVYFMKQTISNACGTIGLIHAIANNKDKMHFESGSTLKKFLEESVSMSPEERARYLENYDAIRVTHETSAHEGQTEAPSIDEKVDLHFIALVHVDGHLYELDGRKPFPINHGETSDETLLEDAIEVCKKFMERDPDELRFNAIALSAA
Description: co-IP; Flag-UCHL3 and HA-CTNNB1 coexpressed in 293 T cells; immunoprecipitation with anti-Flag; IP lysis buffer 30 mM Tris-HCl pH 7.4, 150 mM NaCl, 1% NP-40; G-agarose beads precoated with antibody, 4 °C, 6 h; Western blot. On the technique in general: Immunoblotting shows a protein as a band on a membrane.

By UniProt entry, the sequences of proteins in these tests, tags left out.
UniProt P35222: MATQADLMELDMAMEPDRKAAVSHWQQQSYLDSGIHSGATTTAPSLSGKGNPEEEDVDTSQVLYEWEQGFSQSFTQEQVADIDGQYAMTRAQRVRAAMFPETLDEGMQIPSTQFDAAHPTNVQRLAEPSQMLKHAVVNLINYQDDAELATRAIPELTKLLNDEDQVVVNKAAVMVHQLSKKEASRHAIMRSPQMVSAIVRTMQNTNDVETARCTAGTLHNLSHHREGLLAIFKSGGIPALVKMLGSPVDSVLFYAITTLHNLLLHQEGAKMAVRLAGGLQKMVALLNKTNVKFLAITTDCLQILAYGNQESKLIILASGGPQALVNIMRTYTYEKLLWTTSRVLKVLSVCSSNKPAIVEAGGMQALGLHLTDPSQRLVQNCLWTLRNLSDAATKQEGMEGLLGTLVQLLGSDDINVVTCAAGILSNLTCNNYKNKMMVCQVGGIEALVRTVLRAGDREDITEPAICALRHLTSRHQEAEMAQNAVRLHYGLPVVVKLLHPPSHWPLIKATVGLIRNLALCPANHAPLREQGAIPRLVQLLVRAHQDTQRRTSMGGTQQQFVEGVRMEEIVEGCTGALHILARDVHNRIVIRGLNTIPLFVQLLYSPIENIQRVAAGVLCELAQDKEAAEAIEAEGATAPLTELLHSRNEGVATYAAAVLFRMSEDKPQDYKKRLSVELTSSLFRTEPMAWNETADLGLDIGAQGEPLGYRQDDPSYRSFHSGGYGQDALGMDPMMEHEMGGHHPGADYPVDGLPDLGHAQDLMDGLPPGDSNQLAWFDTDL

The target in assay [2] is CTNNB1, endogenous in T24 cells (human (endogenous in T24)) (UniProt P35222). Kind of assay: co-IP; endogenous proteins in T24 cells; immunoprecipitation with anti-CTNNB1 followed by immunoblotting with anti-UCHL3.

No constants are given. Whether binding was seen depends on the method and setting. In cells and extracts the contact can be indirect. Some binding calls cover weakened binding; strength is not graded here. For some assays here: Sequences can lack the tags named with a protein.

As for “HA-CTNNB1 (catenin beta 1) (from UniProt P35222 1-781)”, the binding result in assay [1] is “binds”.

B1: UCHL3, endogenous in T24 cells (enzyme, UniProt P15374 1-230)
chain: MEGQRWLPLEANPEVTNQFLKQLGLHPNWQFVDVYGMDPELLSMVPRPVCAVLLLFPITEKYEVFRTEEEEKIKSQGQDVTSSVYFMKQTISNACGTIGLIHAIANNKDKMHFESGSTLKKFLEESVSMSPEERARYLENYDAIRVTHETSAHEGQTEAPSIDEKVDLHFIALVHVDGHLYELDGRKPFPINHGETSDETLLEDAIEVCKKFMERDPDELRFNAIALSAA
For the molecule B1, the binding result in assay [2] was “binds”.

The values are drawn from article PMC10517567.
